Reference: the supplement of paper PMC10849652
This is one part of the list.

Sequences of proteins named here, by UniProt entry; tags and fusion partners are left off. A change or cut given only in a name is not applied to a line headed by its entry.
UniProt P49458: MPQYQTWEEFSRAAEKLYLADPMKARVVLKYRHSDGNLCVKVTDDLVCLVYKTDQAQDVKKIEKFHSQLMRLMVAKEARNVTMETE
UniProt P51571: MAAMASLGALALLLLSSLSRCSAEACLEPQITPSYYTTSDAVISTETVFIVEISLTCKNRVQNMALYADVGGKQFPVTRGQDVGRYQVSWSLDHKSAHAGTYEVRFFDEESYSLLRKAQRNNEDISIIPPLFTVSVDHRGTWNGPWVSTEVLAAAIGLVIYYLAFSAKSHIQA
UniProt Q9H254, whole entry, looked up: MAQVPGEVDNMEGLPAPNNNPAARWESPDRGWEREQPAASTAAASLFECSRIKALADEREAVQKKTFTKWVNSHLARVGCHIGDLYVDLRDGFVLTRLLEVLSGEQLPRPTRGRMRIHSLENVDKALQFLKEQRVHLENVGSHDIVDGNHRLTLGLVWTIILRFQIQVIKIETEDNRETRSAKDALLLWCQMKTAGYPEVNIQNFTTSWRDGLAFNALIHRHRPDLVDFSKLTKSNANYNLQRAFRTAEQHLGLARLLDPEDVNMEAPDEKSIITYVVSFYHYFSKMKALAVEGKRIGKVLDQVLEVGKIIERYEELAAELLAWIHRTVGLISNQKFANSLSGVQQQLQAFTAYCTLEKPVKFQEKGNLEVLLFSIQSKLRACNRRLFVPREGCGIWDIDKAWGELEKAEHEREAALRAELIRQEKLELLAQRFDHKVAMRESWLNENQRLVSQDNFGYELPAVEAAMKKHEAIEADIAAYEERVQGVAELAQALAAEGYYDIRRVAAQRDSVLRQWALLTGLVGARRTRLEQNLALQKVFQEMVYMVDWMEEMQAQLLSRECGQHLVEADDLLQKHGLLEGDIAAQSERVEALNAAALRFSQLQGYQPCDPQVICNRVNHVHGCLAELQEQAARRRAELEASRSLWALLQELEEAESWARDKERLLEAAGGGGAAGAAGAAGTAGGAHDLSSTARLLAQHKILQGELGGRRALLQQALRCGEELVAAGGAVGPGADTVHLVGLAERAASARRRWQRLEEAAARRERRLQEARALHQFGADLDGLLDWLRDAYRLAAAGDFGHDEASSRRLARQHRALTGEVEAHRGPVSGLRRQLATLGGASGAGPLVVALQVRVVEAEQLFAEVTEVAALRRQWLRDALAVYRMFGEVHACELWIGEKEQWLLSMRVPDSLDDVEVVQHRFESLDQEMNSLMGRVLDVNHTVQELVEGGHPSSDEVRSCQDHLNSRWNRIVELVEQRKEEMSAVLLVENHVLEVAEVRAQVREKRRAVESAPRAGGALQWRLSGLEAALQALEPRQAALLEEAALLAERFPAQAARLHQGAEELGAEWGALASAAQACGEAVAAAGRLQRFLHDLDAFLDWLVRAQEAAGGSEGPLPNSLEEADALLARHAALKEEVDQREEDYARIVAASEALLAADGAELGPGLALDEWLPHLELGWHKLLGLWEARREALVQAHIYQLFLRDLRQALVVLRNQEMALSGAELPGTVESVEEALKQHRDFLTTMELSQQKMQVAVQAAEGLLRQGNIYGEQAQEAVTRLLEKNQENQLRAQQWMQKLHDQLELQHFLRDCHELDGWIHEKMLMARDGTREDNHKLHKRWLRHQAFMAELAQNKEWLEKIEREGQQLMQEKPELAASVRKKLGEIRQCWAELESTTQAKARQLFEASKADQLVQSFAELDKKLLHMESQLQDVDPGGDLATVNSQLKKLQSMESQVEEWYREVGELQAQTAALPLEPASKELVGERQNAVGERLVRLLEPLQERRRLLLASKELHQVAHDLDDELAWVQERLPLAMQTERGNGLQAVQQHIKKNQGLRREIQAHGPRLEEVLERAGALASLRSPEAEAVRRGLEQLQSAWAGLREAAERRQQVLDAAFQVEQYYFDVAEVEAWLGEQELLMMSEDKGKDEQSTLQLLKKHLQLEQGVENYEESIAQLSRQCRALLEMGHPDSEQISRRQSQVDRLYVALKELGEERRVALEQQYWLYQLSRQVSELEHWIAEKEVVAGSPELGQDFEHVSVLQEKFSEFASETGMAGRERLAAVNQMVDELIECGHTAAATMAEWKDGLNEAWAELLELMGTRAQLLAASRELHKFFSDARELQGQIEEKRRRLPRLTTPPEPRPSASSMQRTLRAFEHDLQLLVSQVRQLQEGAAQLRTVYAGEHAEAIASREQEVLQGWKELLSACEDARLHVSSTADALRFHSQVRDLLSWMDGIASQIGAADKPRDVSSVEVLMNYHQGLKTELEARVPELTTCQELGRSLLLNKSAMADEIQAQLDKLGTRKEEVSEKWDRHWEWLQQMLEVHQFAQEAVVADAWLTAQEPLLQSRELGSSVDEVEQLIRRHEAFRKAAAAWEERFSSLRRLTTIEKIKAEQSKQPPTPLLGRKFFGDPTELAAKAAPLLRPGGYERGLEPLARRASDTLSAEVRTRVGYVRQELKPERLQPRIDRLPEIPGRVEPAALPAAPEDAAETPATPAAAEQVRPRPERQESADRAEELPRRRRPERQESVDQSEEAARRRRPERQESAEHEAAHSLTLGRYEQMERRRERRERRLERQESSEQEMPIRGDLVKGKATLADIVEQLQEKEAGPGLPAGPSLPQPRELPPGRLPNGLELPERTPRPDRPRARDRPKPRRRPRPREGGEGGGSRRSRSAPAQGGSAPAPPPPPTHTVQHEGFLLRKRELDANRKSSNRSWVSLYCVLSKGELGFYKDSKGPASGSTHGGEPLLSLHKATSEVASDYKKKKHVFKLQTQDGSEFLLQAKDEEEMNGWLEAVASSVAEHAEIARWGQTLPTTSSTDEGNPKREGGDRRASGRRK
UniProt Q9H2V7: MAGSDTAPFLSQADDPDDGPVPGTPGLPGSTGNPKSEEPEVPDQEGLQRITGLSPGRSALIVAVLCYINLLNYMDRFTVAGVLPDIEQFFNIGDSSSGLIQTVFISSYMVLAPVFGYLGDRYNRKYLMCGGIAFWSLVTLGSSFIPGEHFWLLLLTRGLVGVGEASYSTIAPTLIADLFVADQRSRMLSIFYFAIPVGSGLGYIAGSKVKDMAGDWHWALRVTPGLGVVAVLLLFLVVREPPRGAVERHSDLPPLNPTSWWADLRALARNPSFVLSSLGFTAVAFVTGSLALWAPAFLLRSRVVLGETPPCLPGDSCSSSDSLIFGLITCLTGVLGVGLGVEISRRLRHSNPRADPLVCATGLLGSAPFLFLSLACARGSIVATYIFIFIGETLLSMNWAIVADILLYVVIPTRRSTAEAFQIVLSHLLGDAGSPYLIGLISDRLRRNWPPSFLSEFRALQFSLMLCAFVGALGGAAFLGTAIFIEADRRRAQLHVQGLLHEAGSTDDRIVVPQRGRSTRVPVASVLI
UniProt Q13586, whole entry, looked up: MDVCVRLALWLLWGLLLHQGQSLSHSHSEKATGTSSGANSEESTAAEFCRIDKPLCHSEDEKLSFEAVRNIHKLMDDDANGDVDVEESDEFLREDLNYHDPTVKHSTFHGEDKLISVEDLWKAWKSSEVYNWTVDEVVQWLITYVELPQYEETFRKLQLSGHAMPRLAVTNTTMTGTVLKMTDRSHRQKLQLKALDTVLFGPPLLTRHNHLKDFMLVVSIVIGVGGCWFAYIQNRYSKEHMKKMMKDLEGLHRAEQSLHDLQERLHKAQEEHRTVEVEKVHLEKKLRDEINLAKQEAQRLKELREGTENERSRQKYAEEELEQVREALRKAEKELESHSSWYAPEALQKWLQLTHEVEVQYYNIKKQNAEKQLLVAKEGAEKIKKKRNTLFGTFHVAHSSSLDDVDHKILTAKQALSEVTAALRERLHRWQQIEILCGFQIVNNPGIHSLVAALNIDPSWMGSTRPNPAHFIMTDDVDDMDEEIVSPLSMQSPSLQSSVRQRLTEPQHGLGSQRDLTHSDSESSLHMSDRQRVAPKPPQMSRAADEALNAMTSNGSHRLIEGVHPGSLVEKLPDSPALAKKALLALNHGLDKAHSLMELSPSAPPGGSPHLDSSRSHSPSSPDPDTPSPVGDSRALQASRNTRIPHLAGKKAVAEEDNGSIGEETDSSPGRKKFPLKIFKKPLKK
UniProt Q9UNL2: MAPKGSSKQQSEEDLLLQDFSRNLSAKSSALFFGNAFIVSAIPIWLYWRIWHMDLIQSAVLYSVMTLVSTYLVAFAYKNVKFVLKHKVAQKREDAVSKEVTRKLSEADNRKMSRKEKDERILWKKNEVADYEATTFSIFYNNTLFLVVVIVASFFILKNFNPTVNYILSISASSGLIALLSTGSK
UniProt Q8NB90: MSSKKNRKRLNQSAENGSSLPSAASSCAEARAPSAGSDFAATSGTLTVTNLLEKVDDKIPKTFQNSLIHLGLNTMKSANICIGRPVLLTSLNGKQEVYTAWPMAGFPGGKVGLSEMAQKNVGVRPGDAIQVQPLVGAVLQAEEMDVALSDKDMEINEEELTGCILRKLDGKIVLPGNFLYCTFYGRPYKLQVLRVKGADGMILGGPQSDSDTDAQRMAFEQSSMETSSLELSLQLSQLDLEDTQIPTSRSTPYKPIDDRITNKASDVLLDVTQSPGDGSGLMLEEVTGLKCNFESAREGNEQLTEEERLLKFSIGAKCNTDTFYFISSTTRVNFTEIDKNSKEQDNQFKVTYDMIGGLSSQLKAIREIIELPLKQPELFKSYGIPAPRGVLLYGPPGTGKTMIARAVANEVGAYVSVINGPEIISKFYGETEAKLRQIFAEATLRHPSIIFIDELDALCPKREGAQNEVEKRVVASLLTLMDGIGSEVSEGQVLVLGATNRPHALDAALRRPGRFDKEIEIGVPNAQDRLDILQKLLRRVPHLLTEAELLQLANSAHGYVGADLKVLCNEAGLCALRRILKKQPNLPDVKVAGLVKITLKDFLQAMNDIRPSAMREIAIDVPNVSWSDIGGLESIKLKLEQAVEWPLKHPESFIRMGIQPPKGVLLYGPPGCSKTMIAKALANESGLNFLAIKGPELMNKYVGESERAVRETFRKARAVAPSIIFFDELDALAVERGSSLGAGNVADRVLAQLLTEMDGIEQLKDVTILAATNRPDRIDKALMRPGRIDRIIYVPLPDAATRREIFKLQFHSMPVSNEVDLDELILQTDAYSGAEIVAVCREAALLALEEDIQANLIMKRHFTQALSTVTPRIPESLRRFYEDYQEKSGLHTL
UniProt Q9BUA3: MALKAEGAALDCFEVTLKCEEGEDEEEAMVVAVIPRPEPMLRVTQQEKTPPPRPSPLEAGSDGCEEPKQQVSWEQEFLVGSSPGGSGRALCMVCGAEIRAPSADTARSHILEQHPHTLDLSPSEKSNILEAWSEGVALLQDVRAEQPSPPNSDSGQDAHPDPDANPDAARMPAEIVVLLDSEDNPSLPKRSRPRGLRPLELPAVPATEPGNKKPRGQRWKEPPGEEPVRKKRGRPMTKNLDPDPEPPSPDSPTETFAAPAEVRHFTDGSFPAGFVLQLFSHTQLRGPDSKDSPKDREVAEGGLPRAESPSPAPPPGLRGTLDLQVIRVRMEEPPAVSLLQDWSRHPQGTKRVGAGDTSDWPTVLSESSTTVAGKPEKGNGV

What was measured:
Test in all cases: log2 fold change, soluble protein after heating vs DMSO (PISA); higher = thermal stabilisation; K562 cells, 10 uM, 30 min; active = over 0.2 and 3.5 SD of the protein, either way, in both replicates (recomputed)
[1] = compound: CC1=C(C=C(C=C1)NC(=O)C2=CC(=CC=C2)C(C)(C)C#N)NC3=CC4=C(C=C3)N=CN(C4=O)C
Procedure, shortened: (§1)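 Values are thermal stability changes relative to control samples and are taken from duplicates. They are stated as log2 fold changes. Before quantification by TMTpro 16plex LC-MS/MS with equalised channel sums, K562 cells at 2×10^6 cells/mL were treated with 10 μM compound for 30 min, heated in aliquots for 3 min across 48°C-58°C, pooled, extracted in PBS with 0.5% NP-40 at 4°C, and centrifuged at 21,000xg for 90 min to give the soluble supernatant.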

[2] = compound: CC1=C(C=C(C=C1)NC(=O)C2=CC(=CC=C2)N(C)C)NC(=O)C3=CC=C(C=C3)O
Procedure, shortened: as §1

[3] = compound: CC1=CC=C(C=C1)SC2=C3C=C(SC3=CN=C2)C(=O)N
Procedure, shortened: as §1

[4] = compound: CC1=NC(=CC=C1)C2=C(N=C(N2)C(C)(C)C)C3=CC4=NC=CN=C4C=C3
Procedure, shortened: as §1

Nexturastat A = compound: CCCCN(Cc1ccc(C(=O)NO)cc1)C(=O)Nc1ccccc1 [Nexturastat A]
Procedure, shortened: as §1

vemurafenib = compound: CCCS(=O)(=O)Nc1ccc(F)c(C(=O)c2c[nH]c3ncc(-c4ccc(Cl)cc4)cc23)c1F [vemurafenib]
Procedure, shortened: as §1

[5] = compound: CCCS(=O)(=O)Nc1ccc(F)c(C(=O)c2c[nH]c3ncc(Cl)cc23)c1F
Procedure, shortened: as §1

[6] = compound: CCCc1cc(C)[nH]c(=O)c1CNC(=O)c1cc(-c2ccnc(N3CCN(C)CC3)c2)cc2c1cnn2C(C)C
Procedure, shortened: as §1

givinostat = compound: CCN(CC)Cc1ccc2cc(COC(=O)Nc3ccc(C(=O)NO)cc3)ccc2c1 [givinostat]
Procedure, shortened: as §1

barasertib = compound: CCN(CCCOc1ccc2c(Nc3cc(CC(=O)Nc4cccc(F)c4)[nH]n3)ncnc2c1)CCOP(=O)(O)O [barasertib]
Procedure, shortened: as §1

[7] = compound: CC[C@@H]1C(=O)N(C)c2cnc(Nc3ccc(C(=O)NC4CCN(C)CC4)cc3OC)nc2N1C1CCCC1
Procedure, shortened: as §1

volasertib = compound: CC[C@@H]1C(=O)N(C)c2cnc(Nc3ccc(C(=O)N[C@H]4CC[C@H](N5CCN(CC6CC6)CC5)CC4)cc3OC)nc2N1C(C)C [volasertib]
Procedure, shortened: as §1

[8] = compound: CC[C@H](C)N1C=C(C2=C(C=C(C=C21)C3=CN=C(C=C3)N4CCNCC4)C(=O)NCC5=C(C=C(NC5=O)C)C)C
Procedure, shortened: as §1

epoxomicin = compound: CC[C@H](C)[C@@H](C(=O)N[C@@H]([C@@H](C)O)C(=O)N[C@@H](CC(C)C)C(=O)[C@]1(CO1)C)NC(=O)[C@H]([C@@H](C)CC)N(C)C(=O)C [epoxomicin]
Procedure, shortened: as §1

[9] = compound: CCn1c(C(=O)N(C2CC2)C2CC2)cc2c3c(ncn3C)c(Nc3cc(C)n(C)n3)nc21
Procedure, shortened: as §1

[10] = compound: CCn1cc(-c2ccnc3[nH]c(-c4cccc(CN(C)C)c4)cc23)c(-c2ccc(NC(=O)N(C)C)cc2)n1
Procedure, shortened: as §1

[11] = compound: CN(C)CC(=O)Nc1ccc2[nH]c(=O)c3ccccc3c2c1
Procedure, shortened: as §1

rosiglitazone = compound: CN(CCOC1=CC=C(C=C1)C[C@H]2C(=O)NC(=O)S2)C3=CC=CC=N3 (racemic) [rosiglitazone]
Procedure, shortened: as §1

[12] = compound: CN1C2=C(C3=C1C(=O)N(N=C3)CC4=CC(=CC=C4)N)SC(=C2)S(=O)C
Procedure, shortened: as §1

[13] = compound: CN1CCC(CNc2ccc3ncc(-c4cccc(OC(F)(F)F)c4)n3n2)CC1
Procedure, shortened: as §1

Row | Target | log2 fold change [1] | log2 fold change [2] | log2 fold change [3] | log2 fold change [4] | log2 fold change (Nexturastat A) | log2 fold change (vemurafenib) | log2 fold change [5] | log2 fold change [6] | log2 fold change (givinostat) | log2 fold change (barasertib) | log2 fold change [7] | log2 fold change (volasertib) | log2 fold change [8] | log2 fold change (epoxomicin) | log2 fold change [9] | log2 fold change [10] | log2 fold change [11] | log2 fold change (rosiglitazone) | log2 fold change [12] | log2 fold change [13]
1 | SRP9 (UniProt P49458) | inactive: 0.003 | inactive: -0.008 | inactive: -0.043 | inactive: -0.106 | inactive: 0.198 | inactive: -0.111 | inactive: -0.026 | inactive: 0.084 | inactive: 0.003 | inactive: -0.117 | inactive: 0.208 | inactive: 0.273 | inactive: -0.017 | inactive: -0.296 | inactive: 0.021 | inactive: 0.223 | inactive: -0.122 | inactive: -0.141 | inactive: 0.288 | inactive: 0.28
2 | STARD9 (UniProt Q9P2P6) | inactive: -0.29 | inactive: 0.01 | inactive: -0.07 | inactive: -0.048 | inactive: 0.144 | inactive: -0.161 | inactive: 0.029 | inactive: -0.035 | inactive: -0.046 | inactive: -0.017 | inactive: -0.024 | inactive: 0.238 | inactive: -0.029 | inactive: 0.022 |  | inactive: 0.008 | inactive: 0.075 |  | active: 0.507 | inactive: -0.098
3 | SSR4 (UniProt P51571) | inactive: -0.004 | inactive: 0.012 | inactive: 0.064 | inactive: 0.039 | inactive: -0.046 | inactive: -0.014 | inactive: 0.081 | inactive: -0.035 | inactive: 0.03 | inactive: -0.052 | inactive: 0.004 | inactive: -0.01 | inactive: -0.004 | inactive: 0.029 |  | inactive: 0.002 | inactive: -0.022 |  | inactive: -0.028 | inactive: 0.045
4 | SPTBN4 (UniProt Q9H254) | inactive: -0.013 | inactive: -0.037 | inactive: 0.144 | inactive: 0.025 | inactive: 0.039 | inactive: -0.027 | inactive: -0.036 | inactive: -0.12 | inactive: 0.112 | inactive: -0.013 | inactive: 0.051 | inactive: -0.293 | inactive: -0.025 | inactive: -0.018 |  | inactive: -0.1 | inactive: 0.171 |  | inactive: 0.011 | inactive: 0.153
5 | SPNS1 (UniProt Q9H2V7) | inactive: 0.039 | inactive: 0.009 | inactive: -0.056 | inactive: -0.004 | inactive: -0.083 | inactive: 0.01 | inactive: -0.12 | inactive: -0.063 | inactive: -0.008 | inactive: -0.017 | inactive: -0.006 | inactive: -0.058 | inactive: -0.018 | inactive: -0.072 | inactive: 0.008 | inactive: -0.031 | inactive: 0.009 | inactive: 0.023 | inactive: 0.01 | inactive: -0.175
6 | STIM1 (UniProt Q13586) | inactive: 0.014 | inactive: 0.003 | inactive: 0.028 | inactive: 0.045 | inactive: -0.066 | inactive: -0.006 | inactive: 0.034 | inactive: -0.015 | inactive: 0.009 | inactive: 0.008 | inactive: -0.116 | inactive: -0.206 | inactive: 0.025 | inactive: 0.028 |  | inactive: 0.023 | inactive: 0.007 |  | inactive: -0.047 | inactive: -0.195
7 | SSR3 isoform 2 (UniProt Q9UNL2) | inactive: -0.032 | inactive: 0.123 | inactive: -0.014 | inactive: 0.022 | inactive: -0.103 | inactive: 0.11 | inactive: -0.011 | inactive: -0.075 | inactive: -0.042 | inactive: 0.017 | inactive: 0.05 | inactive: 0.059 | inactive: -0.075 | inactive: -0.054 |  | inactive: -0.069 | inactive: 0.087 |  | inactive: 0.056 | inactive: 0.195
8 | SPATA5 (UniProt Q8NB90) | inactive: -0.031 | inactive: 0.015 | inactive: -0.021 | inactive: 0.002 | inactive: 0.007 | inactive: -0.028 | inactive: -0.019 | inactive: -0.013 | inactive: -0.012 | inactive: -0.051 | inactive: 0.042 | inactive: 0.045 | inactive: -0.031 | inactive: -0.093 | inactive: 0.012 | inactive: 0.02 | inactive: -0.01 | inactive: -0.028 | inactive: 0.004 | inactive: 0.046
9 | SPINDOC (UniProt Q9BUA3) | inactive: 0.157 | inactive: 0.037 | inactive: -0.074 | inactive: -0.139 | inactive: -0.014 | inactive: 0.113 | inactive: 0.11 | inactive: -0.013 | inactive: -0.127 | inactive: 0.129 | inactive: -0.131 | inactive: -0.178 | inactive: -0.243 | inactive: 0.071 |  | inactive: 0.105 | inactive: 0.074 |  | inactive: -0.222 | inactive: -0.02

Given in markdown: part of the list above.

| Row | Target | log2 fold change [1] | log2 fold change [2] | log2 fold change [3] | log2 fold change [4] | log2 fold change (Nexturastat A) | log2 fold change (vemurafenib) | log2 fold change [5] | log2 fold change [6] | log2 fold change (givinostat) | log2 fold change (barasertib) | log2 fold change [7] | log2 fold change (volasertib) | log2 fold change [8] | log2 fold change (epoxomicin) | log2 fold change [9] | log2 fold change [10] | log2 fold change [11] | log2 fold change (rosiglitazone) | log2 fold change [12] | log2 fold change [13] |
| --- | --- | --- | --- | --- | --- | --- | --- | --- | --- | --- | --- | --- | --- | --- | --- | --- | --- | --- | --- | --- | --- |
| 8 | SPATA5 (UniProt Q8NB90) | inactive: -0.031 | inactive: 0.015 | inactive: -0.021 | inactive: 0.002 | inactive: 0.007 | inactive: -0.028 | inactive: -0.019 | inactive: -0.013 | inactive: -0.012 | inactive: -0.051 | inactive: 0.042 | inactive: 0.045 | inactive: -0.031 | inactive: -0.093 | inactive: 0.012 | inactive: 0.02 | inactive: -0.01 | inactive: -0.028 | inactive: 0.004 | inactive: 0.046 |
| 9 | SPINDOC (UniProt Q9BUA3) | inactive: 0.157 | inactive: 0.037 | inactive: -0.074 | inactive: -0.139 | inactive: -0.014 | inactive: 0.113 | inactive: 0.11 | inactive: -0.013 | inactive: -0.127 | inactive: 0.129 | inactive: -0.131 | inactive: -0.178 | inactive: -0.243 | inactive: 0.071 |  | inactive: 0.105 | inactive: 0.074 |  | inactive: -0.222 | inactive: -0.02 |
